For at least one compound, name, drawing or mass did not settle the structure.
Assays:
[1] = system: INS1 cells expressing MitoTimer; assay: MitoTimer red/green ratio high-content screen and dose-response; type: cell-based; conditions: 18 h; Urolithin 50 uM, Bafilomycin 200 nM, Chloroquine 20 uM, Rapamycin 100 nM
Protocol: INS1 cells were stably transduced with MitoTimer by lentiviral infection and were tested using known modulators of autophagy. The paradigm used was based on previous reports showing that the shift in emission from green to red occurs within 18 hours. Assuming that this shift is constant, changes in red FI occurring during this frame of time can result from an effect on MitoTimer clearance and not from an effect on synthesis. The paradigm employed consisted therefore of a treatment lasting 18 hours followed by imaging.
Stimulators of mitochondrial clearance were defined as those inducing a red-to-green FI below −3 and a red intensity below −5.1. […]
The screen was performed during 8 sessions in Weizmann institute. […] The images were processed to reduce background (using Metamorph software) and then analyzed in GeneData software. […]
MitoTimer expressing INS1 cells generation, Cell Culture and treatments. […] Highly expressing cells were selected by high speed fluorescence activated cell sorter (SY3200 cell sorter, Synergy, iCyt) and kept by the addition of puromycin (1 mg . L-1) in the cell media. Cells were thawed before each experiment, and MitoTimer expression checked through fluorescence.
High-Content Screening. […] Two fields of each well were analyzed, what normally allowed the analysis of 20-40 cells per condition. […]

INS1 cells = assay: Western blot for mitochondrial proteins; type: cell-based; conditions: rapamycin 100 nM, 18 hours
Protocol: INS1 cells expressing Mitotimer under EF-1 alpha promoter were treated for 18 hours with rapamycin (100 nM). […] FIGS. 2B and 2C show a Western blot for mitochondrial proteins upon treatment with rapamycin. Note that rapamycin increased mitochondrial mass.
Cell treatments and mitochondrial extraction. INS1 cells were treated with SBP08007 or MWP00839 25 uM for 24 h. Mitochondrial and cytosolic fractions from INS1 cells were performed by using the Mitochondria Isolation Kit for Cultured Cells (Pierce). INS1 cells were lysed in a hypotonic buffer (10 mM NaCl, 1.5 mM MgCl2, and 10 mM Tris.HCl, pH 7.5), and mitochondria were extracted in a Dounce homogenizer in mitochondrial buffer (1 mM EDTA, 210 mM mannitol, 70 mM sucrose, and 5 mM Tris.HCl, 7.5), followed by centrifugation at 1,300×g for 10 min at 4° C. The supernatant was further centrifuged at 17,000×g for 15 min at 4° C. to pellet the mitochondria. The crude mitochondrial fraction was resuspended for washing and centrifuged at 17,000×g for 15 min at 4° C. The pellets were collected as the mitochondrial fraction.
Western blot. […] Stain free total protein labeling was imaged in Image Lab 6.0 Software (BioRad), which was used for quantification of the mitochondria and normalization to total protein staining.

## CO[C@H]1C[C@@H]2CC[C@@H](C)[C@@](O)(O2)C(=O)C(=O)N2CCCC[C@H]2C(=O)O[C@H]([C@H](C)C[C@@H]2CC[C@@H](O)[C@H](OC)C2)CC(=O)[C@H](C)/C=C(\C)[C@@H](O)[C@@H](OC)C(=O)[C@H](C)C[C@H](C)/C=C/C=C/C=C/1C [Rapamycin, reference compound]
[1]
  MitoTimer red/green ratio (known modulators): increase in red-to-green FI
INS1 cells
  mitochondrial mass (VDAC, Mfn2, complex IV): increase in VDAC, Mfn2 and complex IV

Reference: patent US20230002344A1, “NOVEL BENZOTHIOPHENE DERIVATIVES AND USE THEREOF FOR STIMULATING MITOCHONDRIAL TURNOVER” (NIBN, The National Institute For Biotechnology In The Negev …, priority 2019, published 2023)
